The assay deals with FGFR1 fused to enhanced green fluorescent protein (FGFR1-EGFP) (UniProt P11362). Put plainly: co-IP; anti-FGFR1 antibody (1:50) on Dynabeads M-280 sheep anti-rabbit IgG; 500 µg lysate of U251 control cells or U251 cells with SPRY2-OE, transfected with FGFR1-EGFP, untreated or treated 10 min with FGF2 (100 ng/mL) and heparan sulfate (10 µg/mL); IP lysis buffer 50 mM Tris/HCl pH 7.5, 10% glycerol, 150 mM NaCl, 1% Nonidet P-40, 0.25% sodium deoxycholate, 2 mM EDTA; 1 h at 4 °C; Western blot. On the technique in general: A western blot detects proteins with antibodies after separation by electrophoresis.

Chains of the proteins cited; added tags and fusions are not shown. Residues count along the entry.
UniProt P11362, residues 22-822: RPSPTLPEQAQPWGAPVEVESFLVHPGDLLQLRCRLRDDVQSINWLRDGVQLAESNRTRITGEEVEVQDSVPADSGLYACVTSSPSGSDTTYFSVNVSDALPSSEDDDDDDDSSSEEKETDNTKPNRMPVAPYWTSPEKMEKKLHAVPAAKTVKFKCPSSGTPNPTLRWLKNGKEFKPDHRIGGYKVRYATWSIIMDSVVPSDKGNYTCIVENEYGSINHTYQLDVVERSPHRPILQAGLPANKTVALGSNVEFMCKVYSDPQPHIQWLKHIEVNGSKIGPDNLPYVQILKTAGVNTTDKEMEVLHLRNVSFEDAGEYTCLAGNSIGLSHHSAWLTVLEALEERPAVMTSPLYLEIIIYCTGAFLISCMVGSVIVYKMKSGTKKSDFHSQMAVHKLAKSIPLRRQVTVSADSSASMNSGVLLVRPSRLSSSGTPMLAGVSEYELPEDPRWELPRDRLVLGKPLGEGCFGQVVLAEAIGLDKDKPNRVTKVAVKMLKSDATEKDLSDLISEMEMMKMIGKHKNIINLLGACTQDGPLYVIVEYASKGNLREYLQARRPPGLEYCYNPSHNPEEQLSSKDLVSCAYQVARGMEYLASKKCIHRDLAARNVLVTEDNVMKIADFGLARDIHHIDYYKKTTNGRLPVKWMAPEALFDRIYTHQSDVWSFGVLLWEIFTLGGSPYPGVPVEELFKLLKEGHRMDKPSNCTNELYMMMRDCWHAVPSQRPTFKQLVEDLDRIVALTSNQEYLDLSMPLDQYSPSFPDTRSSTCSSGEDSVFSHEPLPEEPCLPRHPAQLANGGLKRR
UniProt P46934: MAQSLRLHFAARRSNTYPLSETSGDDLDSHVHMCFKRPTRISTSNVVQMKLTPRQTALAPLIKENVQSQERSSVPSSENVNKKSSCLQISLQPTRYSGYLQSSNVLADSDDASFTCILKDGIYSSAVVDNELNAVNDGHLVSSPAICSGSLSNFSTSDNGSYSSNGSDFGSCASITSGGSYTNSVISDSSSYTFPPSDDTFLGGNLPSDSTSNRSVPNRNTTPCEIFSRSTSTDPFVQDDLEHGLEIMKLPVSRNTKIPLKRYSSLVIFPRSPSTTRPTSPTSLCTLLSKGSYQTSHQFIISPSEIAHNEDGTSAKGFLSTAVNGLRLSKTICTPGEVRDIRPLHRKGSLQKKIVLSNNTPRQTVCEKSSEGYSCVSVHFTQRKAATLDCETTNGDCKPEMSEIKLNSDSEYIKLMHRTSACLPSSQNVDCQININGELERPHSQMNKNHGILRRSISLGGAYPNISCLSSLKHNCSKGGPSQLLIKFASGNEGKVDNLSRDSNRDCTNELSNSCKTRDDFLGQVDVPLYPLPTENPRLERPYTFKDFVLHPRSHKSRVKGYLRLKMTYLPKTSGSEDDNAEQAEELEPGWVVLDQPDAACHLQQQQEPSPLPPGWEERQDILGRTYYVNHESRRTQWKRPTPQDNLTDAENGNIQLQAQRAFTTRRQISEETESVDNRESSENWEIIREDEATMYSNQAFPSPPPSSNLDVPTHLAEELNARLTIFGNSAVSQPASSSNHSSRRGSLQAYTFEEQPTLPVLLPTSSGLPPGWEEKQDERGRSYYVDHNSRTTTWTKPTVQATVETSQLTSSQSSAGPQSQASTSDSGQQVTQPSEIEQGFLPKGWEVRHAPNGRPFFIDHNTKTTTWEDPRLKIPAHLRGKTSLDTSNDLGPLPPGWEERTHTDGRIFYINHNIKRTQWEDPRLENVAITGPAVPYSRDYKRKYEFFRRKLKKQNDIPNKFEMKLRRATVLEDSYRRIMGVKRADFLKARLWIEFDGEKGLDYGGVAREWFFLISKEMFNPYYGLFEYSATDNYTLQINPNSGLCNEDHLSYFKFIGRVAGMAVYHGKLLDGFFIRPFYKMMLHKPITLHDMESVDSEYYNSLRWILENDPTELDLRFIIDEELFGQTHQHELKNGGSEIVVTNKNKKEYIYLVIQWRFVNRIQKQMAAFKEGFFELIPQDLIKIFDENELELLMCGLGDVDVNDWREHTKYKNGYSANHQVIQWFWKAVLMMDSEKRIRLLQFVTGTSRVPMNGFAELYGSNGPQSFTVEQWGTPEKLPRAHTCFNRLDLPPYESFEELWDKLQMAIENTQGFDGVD

Results are given in words; binding and its absence hold for the method and conditions named. In cells and extracts the contact can be indirect. Some binding calls cover weakened binding; strength is not graded here.

In the case of “neural precursor cell-expressed developmentally downregulated protein 4 (NEDD4) (from UniProt P46934 1-1319) (enzyme)”, the binding result is listed as “no binding”.

B1: phospholipase Cγ1 (PLCγ1) (enzyme, UniProt P19174 1-1290)
chain: MAGAASPCANGCGPGAPSDAEVLHLCRSLEVGTVMTLFYSKKSQRPERKTFQVKLETRQITWSRGADKIEGAIDIREIKEIRPGKTSRDFDRYQEDPAFRPDQSHCFVILYGMEFRLKTLSLQATSEDEVNMWIKGLTWLMEDTLQAPTPLQIERWLRKQFYSVDRNREDRISAKDLKNMLSQVNYRVPNMRFLRERLTDLEQRSGDITYGQFAQLYRSLMYSAQKTMDLPFLEASTLRAGERPELCRVSLPEFQQFLLDYQGELWAVDRLQVQEFMLSFLRDPLREIEEPYFFLDEFVTFLFSKENSVWNSQLDAVCPDTMNNPLSHYWISSSHNTYLTGDQFSSESSLEAYARCLRMGCRCIELDCWDGPDGMPVIYHGHTLTTKIKFSDVLHTIKEHAFVASEYPVILSIEDHCSIAQQRNMAQYFKKVLGDTLLTKPVEISADGLPSPNQLKRKILIKHKKLAEGSAYEEVPTSMMYSENDISNSIKNGILYLEDPVNHEWYPHYFVLTSSKIYYSEETSSDQGNEDEEEPKEVSSSTELHSNEKWFHGKLGAGRDGRHIAERLLTEYCIETGAPDGSFLVRESETFVGDYTLSFWRNGKVQHCRIHSRQDAGTPKFFLTDNLVFDSLYDLITHYQQVPLRCNEFEMRLSEPVPQTNAHESKEWYHASLTRAQAEHMLMRVPRDGAFLVRKRNEPNSYAISFRAEGKIKHCRVQQEGQTVMLGNSEFDSLVDLISYYEKHPLYRKMKLRYPINEEALEKIGTAEPDYGALYEGRNPGFYVEANPMPTFKCAVKALFDYKAQREDELTFIKSAIIQNVEKQEGGWWRGDYGGKKQLWFPSNYVEEMVNPVALEPEREHLDENSPLGDLLRGVLDVPACQIAIRPEGKNNRLFVFSISMASVAHWSLDVAADSQEELQDWVKKIREVAQTADARLTEGKIMERRKKIALELSELVVYCRPVPFDEEKIGTERACYRDMSSFPETKAEKYVNKAKGKKFLQYNRLQLSRIYPKGQRLDSSNYDPLPMWICGSQLVALNFQTPDKPMQMNQALFMTGRHCGYVLQPSTMRDEAFDPFDKSSLRGLEPCAISIEVLGARHLPKNGRGIVCPFVEIEVAGAEYDSTKQKTEFVVDNGLNPVWPAKPFHFQISNPEFAFLRFVVYEEDMFSDQNFLAQATFPVKGLKTGYRAVPLKNNYSEDLELASLLIKIDIFPAKENGDLSPFSGTSLRERGSDASGQLFHGRAREGSFESRYQQPFEDFRISQEHLADHFDSRERRAPRRTRVNGDNRL
Take B1: the binding result is “binds”.

(Values after publication PMC11639775.)
